Source: patent publication US7034037B2, “Compositions and medical devices utilizing bioabsorbable polymeric waxes and rapamycin” (Ethicon, Inc., priority 2001, dated 2006)
At least one compound was matched to its structure with a doubt left.

Assay: In vitro release of rapamycin from microparticles in 25/75 ethanol/water elution medium at 37° C., HPLC
Assay type: physicochemical
Details: mass of free drug equivalent to that in the drug loaded microspheres

With `CO[C@H]1C[C@@H]2CC[C@@H](C)[C@@](O)(O2)C(=O)C(=O)N2CCCC[C@H]2C(=O)O[C@H]([C@H](C)C[C@@H]2CC[C@@H](O)[C@H](OC)C2)CC(=O)[C@H](C)/C=C(\C)[C@@H](O)[C@@H](OC)C(=O)[C@H](C)C[C@H](C)/C=C/C=C/C=C/1C` [free rapamycin, rapamycin] as the compound, how does the “time to complete dissolution in elution medium” value read?
The value was “less than 24 hours”.
